Results are given in words; binding and its absence hold for the method and conditions named. Binding seen in cells or lysates may run through a third protein. Some entries that bind do so weakly or less than the wild type.
Assays:
[1] = molecular target: T1, FOX-2 (endogenous, HEK293T) (human (endogenous in HEK293T)) (UniProt O43251); test: co-IP; lysate (1 mg) of non-transfected HEK293T cells, anti-FOX-2 (Abnova) overnight at 4°C, Dynabeads; blot with anti-ATXN1; control without primary antibody
T1 sequence: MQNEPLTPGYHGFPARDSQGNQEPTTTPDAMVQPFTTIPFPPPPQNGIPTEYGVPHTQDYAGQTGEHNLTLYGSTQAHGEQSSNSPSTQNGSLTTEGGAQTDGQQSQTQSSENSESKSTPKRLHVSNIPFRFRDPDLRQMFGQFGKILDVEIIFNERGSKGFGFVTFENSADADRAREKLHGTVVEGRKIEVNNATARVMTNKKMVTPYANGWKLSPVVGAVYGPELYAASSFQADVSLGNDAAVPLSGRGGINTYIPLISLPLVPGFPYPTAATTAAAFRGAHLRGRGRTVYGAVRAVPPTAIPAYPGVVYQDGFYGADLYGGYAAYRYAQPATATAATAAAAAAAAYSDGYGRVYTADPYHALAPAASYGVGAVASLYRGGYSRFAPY

Sequences of proteins named here, by UniProt entry; tags and fusion partners are left off.
UniProt P54253: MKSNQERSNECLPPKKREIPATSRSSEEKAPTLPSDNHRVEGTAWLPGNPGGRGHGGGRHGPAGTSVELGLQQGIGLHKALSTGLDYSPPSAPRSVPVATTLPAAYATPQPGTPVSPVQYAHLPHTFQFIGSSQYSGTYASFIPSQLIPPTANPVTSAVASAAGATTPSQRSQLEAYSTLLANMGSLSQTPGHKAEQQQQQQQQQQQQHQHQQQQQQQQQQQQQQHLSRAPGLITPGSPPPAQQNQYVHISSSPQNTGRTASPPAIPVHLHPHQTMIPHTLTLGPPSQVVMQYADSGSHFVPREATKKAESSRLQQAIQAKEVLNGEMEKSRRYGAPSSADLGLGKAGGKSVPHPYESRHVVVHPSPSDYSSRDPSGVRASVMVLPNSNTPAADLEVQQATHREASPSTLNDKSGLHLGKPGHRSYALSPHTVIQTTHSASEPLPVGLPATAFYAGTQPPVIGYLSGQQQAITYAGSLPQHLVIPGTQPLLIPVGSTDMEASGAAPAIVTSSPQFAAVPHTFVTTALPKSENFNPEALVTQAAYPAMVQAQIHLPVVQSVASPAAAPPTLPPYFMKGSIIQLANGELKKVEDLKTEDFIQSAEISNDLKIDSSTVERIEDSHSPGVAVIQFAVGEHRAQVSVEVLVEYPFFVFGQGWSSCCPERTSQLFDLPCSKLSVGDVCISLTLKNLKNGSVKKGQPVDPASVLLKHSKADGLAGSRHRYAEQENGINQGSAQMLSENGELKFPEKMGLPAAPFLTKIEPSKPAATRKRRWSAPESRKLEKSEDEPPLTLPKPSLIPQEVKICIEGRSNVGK
UniProt Q99700: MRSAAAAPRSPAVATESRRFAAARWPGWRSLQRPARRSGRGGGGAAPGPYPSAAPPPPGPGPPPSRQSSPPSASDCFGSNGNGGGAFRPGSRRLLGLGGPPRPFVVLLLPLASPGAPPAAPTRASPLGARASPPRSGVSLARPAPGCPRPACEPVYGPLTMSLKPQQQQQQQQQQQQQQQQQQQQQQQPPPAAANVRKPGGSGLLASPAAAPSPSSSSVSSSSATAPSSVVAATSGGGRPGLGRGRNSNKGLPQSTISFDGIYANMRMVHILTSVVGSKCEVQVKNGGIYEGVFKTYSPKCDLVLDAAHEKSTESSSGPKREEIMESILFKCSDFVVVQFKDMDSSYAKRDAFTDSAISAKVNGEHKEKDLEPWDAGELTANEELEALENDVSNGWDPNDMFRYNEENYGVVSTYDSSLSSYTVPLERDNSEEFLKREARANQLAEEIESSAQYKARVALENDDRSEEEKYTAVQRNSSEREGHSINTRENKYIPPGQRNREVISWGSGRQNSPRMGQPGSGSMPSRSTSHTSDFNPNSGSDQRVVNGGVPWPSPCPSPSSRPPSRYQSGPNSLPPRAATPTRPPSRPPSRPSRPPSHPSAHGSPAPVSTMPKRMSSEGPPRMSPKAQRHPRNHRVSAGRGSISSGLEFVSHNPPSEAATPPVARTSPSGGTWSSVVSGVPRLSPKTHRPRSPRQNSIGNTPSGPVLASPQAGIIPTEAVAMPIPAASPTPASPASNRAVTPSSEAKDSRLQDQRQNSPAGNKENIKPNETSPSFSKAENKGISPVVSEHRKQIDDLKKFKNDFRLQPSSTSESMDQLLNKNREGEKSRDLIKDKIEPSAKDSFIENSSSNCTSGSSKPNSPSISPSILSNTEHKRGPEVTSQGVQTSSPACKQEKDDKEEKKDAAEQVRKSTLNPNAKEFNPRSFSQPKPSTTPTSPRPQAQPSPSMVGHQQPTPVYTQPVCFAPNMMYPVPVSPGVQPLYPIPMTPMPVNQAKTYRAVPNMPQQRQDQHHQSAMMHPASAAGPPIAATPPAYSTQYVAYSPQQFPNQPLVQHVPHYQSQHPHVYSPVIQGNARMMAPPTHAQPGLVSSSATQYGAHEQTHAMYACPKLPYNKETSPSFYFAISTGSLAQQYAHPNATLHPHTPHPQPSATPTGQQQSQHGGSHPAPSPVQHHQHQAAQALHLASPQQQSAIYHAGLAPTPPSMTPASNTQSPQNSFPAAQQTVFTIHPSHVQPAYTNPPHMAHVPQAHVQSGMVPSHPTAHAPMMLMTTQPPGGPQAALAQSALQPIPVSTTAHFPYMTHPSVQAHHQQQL

[2] = molecular target: T2, FOX-2 (endogenous, HeLa) (human (endogenous in HeLa)) (UniProt O43251); test: co-IP; HeLa cell lysate (20 mM Tris-HCl pH 7.4, 150 mM NaCl, 1 mM EDTA, 1% Triton X-100, Benzonase), anti-FOX-2 (Bethyl), Dynabeads; blot with anti-ATXN2 (BD-Biosciences)
T2 sequence: T1 sequence

| binding [1] | binding [2] | Substance |
| --- | --- | --- |
| binds | – | ATXN1 (endogenous, HEK293T) (from UniProt P54253 1-815) |
| – | binds | ATXN2 (endogenous, HeLa) (from UniProt Q99700 1-1313) |
